In publication PMC4530945:
No constants are given. Whether binding was seen depends on the method and setting. In cells and extracts the contact can be indirect. These calls come from enrichment with a bait or labelling near it, and not all partners need be listed.

Sequences of proteins named here, by UniProt entry; tags and fusion partners are left off. Residues count along the entry.
UniProt P60615, residues 22-95: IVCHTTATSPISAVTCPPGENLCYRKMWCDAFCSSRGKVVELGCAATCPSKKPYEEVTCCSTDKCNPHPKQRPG
UniProt P36544, residues 23-502: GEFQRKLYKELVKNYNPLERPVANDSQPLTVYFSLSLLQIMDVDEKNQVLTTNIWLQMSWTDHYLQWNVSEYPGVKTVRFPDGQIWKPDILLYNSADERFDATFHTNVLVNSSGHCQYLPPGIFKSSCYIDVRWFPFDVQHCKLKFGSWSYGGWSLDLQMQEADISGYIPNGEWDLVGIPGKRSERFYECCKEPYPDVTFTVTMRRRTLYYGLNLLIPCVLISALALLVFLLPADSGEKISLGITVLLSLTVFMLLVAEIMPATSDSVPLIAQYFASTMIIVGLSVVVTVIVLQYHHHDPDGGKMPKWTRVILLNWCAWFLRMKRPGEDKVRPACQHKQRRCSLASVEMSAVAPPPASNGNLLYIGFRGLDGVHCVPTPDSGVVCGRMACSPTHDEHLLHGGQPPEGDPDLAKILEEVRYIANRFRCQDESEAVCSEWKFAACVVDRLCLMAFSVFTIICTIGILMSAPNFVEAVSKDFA

Target: α-Bungarotoxin (Bungarus multicinctus) (UniProt P60615)
Assay: affinity purification with mass spectrometry; only the target purified

Substance: α7-nicotinic acetylcholine receptor (from UniProt P36544 23-502)
- binding: binds
